Source: PubChem BioAssay AID1159506 (NCATS, 2015).

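Luminescence from an EWS-FLI1 target-promoter (NR0B1) reporter, set against a CMV-promoter reporter, two days after silencing single genes in TC32 Ewing sarcoma cells. Each siRNA was applied at 20 nM. A z-score of the log NR0B1-over-CMV signal, less the median of siRNAs with the same seed; more negative means a stronger specific loss of the NR0B1 reporter.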

This is part of the screen; most of the strongest results are not listed here. Sequences are the guide (antisense) strand, without overhang.

UUGUUGAAGGAAGAUUUGC against PTF1A read seed-corrected z-score 1.492. Result for ACUCGGAAAAAGACCUCUC against BAX was seed-corrected z-score -0.6153. UUCAGGCACUCUUCACAGG against PTTG1IP read seed-corrected z-score 0.3053. For UUUGAAACAGCACUCUGUC against MLLT4 the result was seed-corrected z-score -0.1292. Result for UGAACUUUAAGGUGAGAGC against ZNF891 was seed-corrected z-score -0.005651. AAAGUAAUGGGACAUUUUG against AADACL4 read seed-corrected z-score -0.2741.

UUCUUGUCAAGAUUCUGCC against MURC read seed-corrected z-score -0.3283. Result for AAAACUAUUACACCCUCCG against ANKRD54 was seed-corrected z-score -0.125. Result for UAUUGCGUCGCUGAUAGCC against C16orf72 was seed-corrected z-score -0.3308. Result for UCAGACAAAAGUGUACUGG against CDC5L was seed-corrected z-score -0.1806. With UCAGGGUCAAUGGAGGUAG against PEX5 the assay gave seed-corrected z-score 0.4216. For UUUGAGUAGUGUCUCCUCC against LSMEM2 the result was seed-corrected z-score 1.226.

UUUUAUUACCCAAUGAGAG against PLEKHS1 gave seed-corrected z-score 0.2141. UCAACUUCAAUAUGUUCCC against KIZ gave seed-corrected z-score -0.438. UGAUAAUCCUUGGAGUUCC against TCHHL1 gave seed-corrected z-score 0.1548. UCAUCGAUCAGCUUGGUCC against UBR4 gave seed-corrected z-score 0.7123. UUAGAUAUGCGAGUCUUGG against FAM47C read seed-corrected z-score -0.1753. Result for UGAUCAACAACACCUAUGC against ARHGAP29 was seed-corrected z-score 0.6208.

UGAAUUCCCACAUUGGUUC against TMEM183B read seed-corrected z-score 0.5357. UUAAGAAACGGAGUCCAGU against GPLD1 read seed-corrected z-score -0.1755. With UCUUGGUUCCGCAGAGUGU against OR10G3 the assay gave seed-corrected z-score 0.4157. AUAUAUUCGAGCUGGUUUC against ATP5C1 read seed-corrected z-score -0.4263. UUGGUAGAAGCGGUGGAAG against HSD17B1 gave seed-corrected z-score 0.2419. Result for AUUUCUACAGGUAUAGUUG against GSTCD was seed-corrected z-score 0.1593.

UACUGCAUCCAGUAGAUAG against CYB561A3 read seed-corrected z-score -0.5512. Result for UUUGAUGUUAACAAGCUUG against NPVF was seed-corrected z-score -0.8685. For UUUGUUGUCAUAGAAGUUA against CTSA the result was seed-corrected z-score -0.1932. Result for UCACUGUUGUCCCUAAGGC against GTF2IRD2 was seed-corrected z-score 1.46. With UAAACUGUUCAGGACCUUC against ZFAT the assay gave seed-corrected z-score -0.0185. With UCCACGUUCAAUUUGAGCC against SMARCA1 the assay gave seed-corrected z-score -0.1278.

Result for AUACAGACAUUUUUGAGAC against FAM83D was seed-corrected z-score -0.4428. UUUUAAAACAUGGGUCACC against FAM102B read seed-corrected z-score 1.492. AUUCAUUCCAGAGUCUUUG against PRICKLE2 gave seed-corrected z-score 0.2168. For UAUGAUAGAAAUACAAUAG against CXCL6 the result was seed-corrected z-score -0.366. Result for UACCAGGUCACCAAUCUGC against MIB1 was seed-corrected z-score 0.3943. CUCACUAAGAUCACCCUGC against GOLGA6L10 read seed-corrected z-score 0.8904.

With UACGGGAAAGGUAUUGCUG against BTBD3 the assay gave seed-corrected z-score 0.8994. AAACUUAUCGCUACCAUAC against ST3GAL6 gave seed-corrected z-score -0.2419. Result for AUACUUCCAAGUGUAUCUG against SLC30A7 was seed-corrected z-score 0.9877. UCUAUCAUCAUUACGGUUC against SCAF4 read seed-corrected z-score 0.4219.

Once more, the final 5:

CUCACUAAGAUCACCCUGC against GOLGA6L10 gave seed-corrected z-score 0.8904.
UACGGGAAAGGUAUUGCUG against BTBD3 gave seed-corrected z-score 0.8994.
AAACUUAUCGCUACCAUAC against ST3GAL6 gave seed-corrected z-score -0.2419.
AUACUUCCAAGUGUAUCUG against SLC30A7 gave seed-corrected z-score 0.9877.
UCUAUCAUCAUUACGGUUC against SCAF4 gave seed-corrected z-score 0.4219.